# According to article PMC7819943, “Rice protein-binding microarrays: a tool to detect cis-acting elements near promoter regions in rice”:
# The other results are listed elsewhere or left out.
# Target: T1, OsSMF1 (Oryza sativa, UniProt Q6ZLB0 1-436)
# T1 sequence: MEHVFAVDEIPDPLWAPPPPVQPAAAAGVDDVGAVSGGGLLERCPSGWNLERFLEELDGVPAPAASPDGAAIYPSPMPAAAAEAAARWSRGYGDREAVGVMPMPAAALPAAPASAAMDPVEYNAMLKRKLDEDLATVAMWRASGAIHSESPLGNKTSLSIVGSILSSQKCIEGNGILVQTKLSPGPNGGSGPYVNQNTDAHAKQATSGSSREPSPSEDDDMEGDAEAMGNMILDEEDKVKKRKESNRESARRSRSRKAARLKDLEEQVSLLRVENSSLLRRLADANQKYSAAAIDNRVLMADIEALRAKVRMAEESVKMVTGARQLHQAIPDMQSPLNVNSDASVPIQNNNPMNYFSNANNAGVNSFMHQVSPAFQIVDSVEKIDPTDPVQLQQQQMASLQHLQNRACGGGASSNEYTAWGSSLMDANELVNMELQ
# Assay: protein-binding microarray (RPBM); PBS, 2% BSA, 51.3 ng/ul salmon testes DNA, 50 uM zinc acetate, 200 nM TF, 25 C, 1 h; high values mean tight binding
# Conditions: protein: recombinant; tags: N-terminal polyhistidine and DsRed monomer fusion (pET32a); chain copies: 2; label: CyDye5-dUTP incorporated in the synthesized complementary strand; 3' TTTTT single-stranded linker to array surface; dsDNA, one strand shown
# In short: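 Polyhistidine-tagged DsRed fusions of transcription factors, joined at the N-terminus, were expressed in E. coli BL21-CodonPlus and isolated on Ni–NTA. They were incubated at 200 nM for 1 h at 25 °C on a custom Agilent array, double-stranded and BSA-blocked, in PBS with 2% BSA, salmon testes DNA and 50 µM zinc acetate. The binding signal is per-feature fluorescence intensity (arbitrary units) read on an Axon 4000B scanner after washing.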
row,Sequence,binding signal
1,GGTTGTATTACCTAACCCAGTCTGACTCGGACTTAGCCGACGGAGTCACCTAGTGCAG,8700 fluorescence intensity (a.u.)
2,TACCTAGGTTTGTGCGTCATTGTGTATTTTACTCATCCTGCGGAGTCACCTAGTGCAG,5710 fluorescence intensity (a.u.)
3,ACATCTAAACAGTAACCGTGAACAGTAGCGCGTGACTCGGCGGAGTCACCTAGTGCAG,32500 fluorescence intensity (a.u.)
4,CTTTTGCTCACATGGCGTGCCACCGTGGCGTGCCCGCATGCGGAGTCACCTAGTGCAG,16200 fluorescence intensity (a.u.)
5,GAAACGAACTCAGCCTACGTCAGTTGTGAAATGTGAATTCCGGAGTCACCTAGTGCAG,3580 fluorescence intensity (a.u.)
6,AGGGAGGAGGGGAATTCGTACTCAGTAGTTTCCGGGCTTTCGGAGTCACCTAGTGCAG,3150 fluorescence intensity (a.u.)
7,ACGCCCGCGGCTCACTGACATGCCGGACGTCGCTTTGGCCCGGAGTCACCTAGTGCAG,3280 fluorescence intensity (a.u.)
8,AGAAGTGTTCTACTACTAGTACTATATATGATCAGTTATTCGGAGTCACCTAGTGCAG,33900 fluorescence intensity (a.u.)
9,GGGGCCCACGCGTCGGCGTTGCGCGGATTTGTCGGCGGTGCGGAGTCACCTAGTGCAG,19800 fluorescence intensity (a.u.)
10,CCACAATCAATTTGACGTCGCCCCTATTTATGTCCTGCCTCGGAGTCACCTAGTGCAG,3210 fluorescence intensity (a.u.)
11,TCTGGCCAATTCCTTCCCACTCCCACACGTGTTCATAGTGCGGAGTCACCTAGTGCAG,6200 fluorescence intensity (a.u.)
12,TGGCGTGATTGCAATTTGCAGTTTGTCCCTTTTGACATATCGGAGTCACCTAGTGCAG,3220 fluorescence intensity (a.u.)
13,TCAGGTGAAATCTGCTTCAGCCATATTCATTGGTAATCAGCGGAGTCACCTAGTGCAG,3600 fluorescence intensity (a.u.)
14,CTGGCGGCTGGCTCTGCTCGGCGTCTTTGCGCCTTGTCATCGGAGTCACCTAGTGCAG,3340 fluorescence intensity (a.u.)
15,CTGGCGGCGAGTGACCGGGAGGTGGACCCCACGTGGCCCACGGAGTCACCTAGTGCAG,5720 fluorescence intensity (a.u.)
16,CATTGTGTAGTACTCTCTTTGCATTGCAGCTGTACAATTGCGGAGTCACCTAGTGCAG,3150 fluorescence intensity (a.u.)
17,CCGGCTCACGCGCGCCGGCGGGATCCACGCGTCGTCGCCGCGGAGTCACCTAGTGCAG,3510 fluorescence intensity (a.u.)
18,CAGTATCTACGCCCATGCCACGCAAGCACGGACCGCCACCCGGAGTCACCTAGTGCAG,18200 fluorescence intensity (a.u.)
19,CACCGGCCAAACACCGCGCGGTCACTCACACGGACCGCACCGGAGTCACCTAGTGCAG,3340 fluorescence intensity (a.u.)
20,TTGAGCCGTTGAACAGCTCGTCTACACGTCATGGGAATAGCGGAGTCACCTAGTGCAG,10000 fluorescence intensity (a.u.)
21,GAAAATTGACCATAGGCGTGACGAGTCACGTCGGTACAGGCGGAGTCACCTAGTGCAG,5310 fluorescence intensity (a.u.)

row,Sequence,binding signal
1,TATAGTTAGGGGACCCCATATCTCGTATTGCGGTTGGAGGCGGAGTCACCTAGTGCAG,8080 fluorescence intensity (a.u.)
2,TCTTCGTGCTGACTCTATCGCGCTCTCTCTCTCCCATCTTCGGAGTCACCTAGTGCAG,6580 fluorescence intensity (a.u.)
3,ACACCATTGACACGTTTGCTTATTCAGATTGTGGTTCATGCGGAGTCACCTAGTGCAG,8850 fluorescence intensity (a.u.)
4,GCTGCGCCGCCATGAGCGCCCGCGTCATTCCGTCCCATCGCGGAGTCACCTAGTGCAG,5610 fluorescence intensity (a.u.)
5,GACTCGACTCGCATTGCGCCTGTGCTGTGCTGTGGTGGTGCGGAGTCACCTAGTGCAG,3400 fluorescence intensity (a.u.)
6,CGCCCCTGATTACTCCAGTGATCTGGCACACATTCTATTTCGGAGTCACCTAGTGCAG,4850 fluorescence intensity (a.u.)
7,GTCGCTGGATGGGTGGCACGGGAGCGGCGGCGTCAGAGCACGGAGTCACCTAGTGCAG,3270 fluorescence intensity (a.u.)
8,AAATTGTACCTCACCGAGTCACCGTCCTCGCTGATGGCATCGGAGTCACCTAGTGCAG,4580 fluorescence intensity (a.u.)
9,TATTCTGATTGGAACTTATGAGTCTTGAATTCTTGATTCTCGGAGTCACCTAGTGCAG,29700 fluorescence intensity (a.u.)
10,GGCGAGGGCGAGCACAGCAGGCAAGGCGATGGTGAGGATTCGGAGTCACCTAGTGCAG,3780 fluorescence intensity (a.u.)
11,AAAATGTCATGTAACTACGCCATTGGACCATAAATATTTTCGGAGTCACCTAGTGCAG,13600 fluorescence intensity (a.u.)
12,ATACTGCTAGTATATAACTATATATGTCTGCATGTTCAGCCGGAGTCACCTAGTGCAG,4560 fluorescence intensity (a.u.)
13,AATTGGACAATTCATCATAAATTTTGCATGAATGATGACACGGAGTCACCTAGTGCAG,3750 fluorescence intensity (a.u.)
14,CGAAATTTAATGGCGCCATATATTAAAACACGGAGGGAGTCGGAGTCACCTAGTGCAG,3610 fluorescence intensity (a.u.)
15,TTGGGAGAGAGGGGCTAAACTTTAGCCCCTCTCTCAAAACCGGAGTCACCTAGTGCAG,23800 fluorescence intensity (a.u.)
16,ACGATGGCCTCCACGAATGACGCGTCCCCTGCGCGCGACGCGGAGTCACCTAGTGCAG,6890 fluorescence intensity (a.u.)
17,CTCGTCCCTCCCTCCCTCCCCACTGTCCGCCGGACTGACGCGGAGTCACCTAGTGCAG,9180 fluorescence intensity (a.u.)
18,CTGCCTCGCCTCGTCTCGCGTCACCTCGCCAGATCCGGCGCGGAGTCACCTAGTGCAG,4960 fluorescence intensity (a.u.)
19,AACTAAGTCCGTACACACAAACTAGTCATGTTCAACAGGACGGAGTCACCTAGTGCAG,4140 fluorescence intensity (a.u.)
20,CCAAATAAGTTAGACCTTGGTTCCAATCGTTTAAGATGTGCGGAGTCACCTAGTGCAG,3180 fluorescence intensity (a.u.)
21,GCGCTGGAGCGGAGGAGCGTGGGGAGGGCGTCGTGGCCCGCGGAGTCACCTAGTGCAG,5900 fluorescence intensity (a.u.)

# Two entries drawn at random from those above, as already listed:
row,Sequence,binding signal
2,TCTTCGTGCTGACTCTATCGCGCTCTCTCTCTCCCATCTTCGGAGTCACCTAGTGCAG,6580 fluorescence intensity (a.u.)
21,GAAAATTGACCATAGGCGTGACGAGTCACGTCGGTACAGGCGGAGTCACCTAGTGCAG,5310 fluorescence intensity (a.u.)
